# Results: patent publication US20170112945A1, “Anchoring and/or Impregnation of Biological Vehicles with Cargo Molecules using a Subcritical or Supercritical Fluid” (NO[…]., priority 2015, published 2017)
# Test system: spores
# Assay: Penetration of peracetic acid into spores under subcritical or supercritical carbon dioxide
# Details: subcritical or supercritical carbon dioxide treatment
smiles,measurement,setting,value
CC(=O)OO [peracetic acid],penetration of the spore,,can reach the spore core
same,penetration of the spore,listed as PAA,can penetrate deeply inside spores
